# Source: PMC2816223, “Designed Coiled-Coil Peptides Inhibit the Type Three Secretion System of Enteropathogenic Escherichia coli” (PLoS ONE, 2010)
# No constants are given. Whether binding was seen depends on the method and setting. Some results given as binding are weak or reduced against the parent protein; the word gives no strength.
# B1: EspA (protein, UniProt Q47184 1-192)
# chain: MDTSTTASVASANASTSTSMAYDLGSMSKDDVIDLFNKLGVFQAAILMFAYMYQAQSDLSIAKFADMNEASKESTTAQKMANLVDAKIADVQSSSDKNAKAQLPDEVISYINDPRNDITISGIDNINAQLGAGDLQTVKAAISAKANNLTTTVNNSQLEIQQMSNTLNLLTSARSDMQSLQYRTISGISLGK
# Target: EspA (E. coli EPEC E2348/69 (endogenous)) (UniProt Q47184)
# Assay: Western blot of polymer species
binder,measurement,value
B1,binding,binds
